Assay [1] concerns the target human IgG Fc fragment (ICN) (human). In words: SPR (BIAcore 2000), human Fc immobilised, rIGBPMA 1 mg/ml as analyte. For orientation: In SPR one partner is held on a chip, and binding of the other changes the refractive index at the surface.
Assay [2] deals with rabbit IgG F(ab')2 fragment (ICN) (rabbit). In words: SPR (BIAcore 2000), F(ab')2 immobilised, rIGBPMA as analyte.
For assay [3], the target named is human IgG Fc fragment (ICN) (human). Kind of assay: SPR (BIAcore 2000), approx 4000 RU human Fc immobilised, rIGBPMA as analyte.

No constants are given. Whether binding was seen depends on the method and setting. For part of these data: Binding can be weak; no strength is given. Sequences can lack the tags named with a protein.

This is an account of results in patent US20080280828A1.

B1: recombinant IGBPMA (rIGBPMA), N-terminal 26 amino acid truncated, C-terminal 6-His-tag, expressed in (protein)
chain: YEVYTGRGVTITVDNTQYEIPADLEKIFQKPKGFSVGSLLVALQEKGIPVNVDEKTGVILGITIDKVRVPFPVSIDLRFKLDNQIYLIPRDLAKLITVLEKKGMPSKILFILYTRYGVVPVRDSNGIVVAISFNGKQFKVKPEPLTAVVILGQKFILPRDTRKMVEFVHSKQSHPEIGFIFLKALKSAGFMLINDDDGAMRSIQKGAQIIKLGFEIRIQVIYGKTTYHVPKDLMRLVKDVRSLGPQEIQSVMKQLKAFDVQVKKEGSKLTILFNSVRYEVDLKSGNVKGHHHHHH
As to B1, the results for the binding entry in assay [1], in assay [2] and in assay [3] were “binds”, “no binding (tested: 1 mg/ml)” and “binds”, respectively.
